At least one peptide structure holds a part that was inferred or is arguable (an end, a ring closure or a residue).
How the values were obtained:
Format in all cases: in vivo
[1] = tested on: sodium-dependent choline uptake (HACU); assay: Cholinergic deficit induced by barbiturate narcosis in mice (hippocampal HACU); settings: administered 30 minutes before induction of narcosis, mouse hippocampus
[2] = tested on: oxotremorine-induced tremor; assay: Oxotremorine-induced tremor in mice; settings: IP, 30 minutes before oxotremorine 0.5 mg/kg IP
Method: Administered at a dose of 0.5 mg/kg IP, oxotremorine, a non-selective M1 -M2 muscarinic agonist leads to cholinergic symptoms of central origin, such as tremor. In control animals, the maximum tremor-inducing effect is observed after 15 minutes, and this effect disappears completely in the course of 45 to 60 minutes.
The administration of TRH (10 mg/kg IP) 30 minutes before that of oxotremorine potentiates the tremor (+50%) at its peak of intensity (15 minutes), but prolongs it to only a very small extent (15 minutes:+20%). The minimal active dose is 5 mg/kg.
Under the same conditions, the compounds of the invention also exert the same potentiating effect, but at much lower minimal active doses, and this effect persists for a further 60 minutes after the injection of oxotremorine. Thus, the minimal active doses are, for example, as follows: […]

[3] = tested on: xylazine-induced loss of righting reflex; assay: Xylazine induced inhibition of the righting reflex in rats; settings: IP
Method: The administration of a central α2 agonist, xylazine, to rats leads to loss of the animal's righting reflex. This effect is antagonized by yohimbine (α2 antagonist) and by agents facilitating noradrenaline release.
TRH antagonizes the effect of xylazine, and the median effective dose is close to 10 mg/kg IP. Under the same conditions, the ED50 of the compounds of Examples 1 and 5 are 0.1 and 0.3 mg/kg, respectively.

NC(=O)[C@@H]1CCCN1C(=O)[C@H](Cc1c[nH]cn1)NC(=O)[C@@H]1CCCCC(=O)N1 [Example 5, (S)AZEP-(S)His-(S)Pro-NH2]
counteraction of the fall in HACU ([1]; 0.3 mg/kg IP): -31.1%
minimal active dose (potentiation of tremor) [2]: 0.1 mg/kg
median effective dose (ED50), antagonism of the effect of xylazine [3]: 0.3 mg/kg

NC(=O)[C@@H]1CCCN1C(=O)[C@H](Cc1c[nH]cn1)NC(=O)C1CCCCCC(=O)N1 (stereo partly drawn) [Example 10, AZOC-(S)His-(S)Pro-NH2]
counteraction of the fall in HACU ([1]; 1 mg/kg IP): -50.8%
